PubChem BioAssay AID602196 – INSERM, 2012
In all, the deposit lists about 23,000 reagents; this is a random part of them. Over the whole deposit, 455 (2%) were called active. 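Active includes both protection and sensitisation; some change values fall well beyond the stated -50 to +50 range.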 Not stated in the record: the amount of reagent.

Screen: 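Genes whose knock-down alters cisplatin killing of lung cancer cells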
System: human A549 lung cancer cells
Reagent: siRNA pair against human genes
Timing: 48 h transfection before cisplatin; time from cisplatin to read-out not stated
Challenge: cisplatin at a dose killing half of control-siRNA cells; exact dose and duration not given
Read-out: 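Cisplatin cell death as a shift from the 50% death seen with control siRNA; siRNAs toxic or growth-blocking alone scored 0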
Direction: two-siRNA summed score (-2 to +2): higher = both siRNAs protect from cisplatin killing; -2 means both sensitise; mean protection from cisplatin (shift in death) and protection from cisplatin (shift in death), siRNA C and protection from cisplatin (shift in death), siRNA D: higher = protection from cisplatin killing
Call rule: 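Each siRNA scores 0 if harmful alone by LDH or WST-1, otherwise +1 if it reduces and -1 if it increases cisplatin killing; a gene is active when both siRNAs agree (sum +2 or -2)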
Meaning of the calls: active = both siRNAs shift cisplatin killing the same way; inactive = no consistent shift, or siRNA harmful alone

gene knocked down	two-siRNA summed score (-2 to +2)	mean protection from cisplatin (shift in death) (%)	protection from cisplatin (shift in death), siRNA C (%)	protection from cisplatin (shift in death), siRNA D (%)	call
SLC1A3	0	-5.7	-11.5	0.1	inactive
OR51B2	-1	-7.1	2.3	-16.5	inactive
TFAP2C	0	7.7	-3.7	19	inactive
OR5K4	0	0.4	-3.1	3.8	inactive
C11orf71	0	8.8	16.8	0.7	inactive
SAMD9	0	7	13.4	0.6	inactive
ZNF250	0	5.6	13	-1.9	inactive
IL13RA2	1	22.3	24.7	19.9	inactive
PLA2G6	0	3.9	12.8	-5	inactive
LOC389290	0	-13.6	-12.4	-14.8	inactive
HOXD1	0	14.5	10	19	inactive
OGFRL1	1	10.8	33.3	-11.6	inactive
PTPN21	-1	-5.2	-11.5	1.1	inactive
PLBD1	0	-1	12.9	-14.9	inactive
LOC400214	0	9.5	12.1	7	inactive
LDHB	0	5.5	6.8	4.3	inactive
AMDHD2	0	-0.9	3.5	-5.3	inactive
IFNA21	-1	-12	19.6	-43.5	inactive
RAB39B	0	7.1	2.4	11.8	inactive
PCNP	1	7.3	-2.4	16.9	inactive

Quoted from the listing (2 entries):
gene knocked down	two-siRNA summed score (-2 to +2)	mean protection from cisplatin (shift in death) (%)	protection from cisplatin (shift in death), siRNA C (%)	protection from cisplatin (shift in death), siRNA D (%)	call
ZNF250	0	5.6	13	-1.9	inactive
IL13RA2	1	22.3	24.7	19.9	inactive

The list goes on:
gene knocked down	two-siRNA summed score (-2 to +2)	mean protection from cisplatin (shift in death) (%)	protection from cisplatin (shift in death), siRNA C (%)	protection from cisplatin (shift in death), siRNA D (%)	call
CAPN6	0	-9.1	-9.3	-8.8	inactive
CMPK2	1	15.2	16.4	14	inactive
SCN5A	0	-1.6	-11.1	7.9	inactive
LOC401589	0	11.4	8.7	14.2	inactive
C2CD3	1	8.8	0.2	17.5	inactive
FIZ1	0	-5.5	7.1	-18.1	inactive
ATG16L2	0	17.4	34.4	0.3	inactive
LOC203069	0	10.7	-7.7	29	inactive
USP39	0	1.3	0.8	1.7	inactive
VPS33B	0	0.6	-1.2	2.3	inactive
RGS1	0	10.4	5.8	15.1	inactive
DDOST	1	22.6	40	5.2	inactive
LOC112268070	0	2.6	-0.7	5.9	inactive
SGF29P1	0	39	9.5	68.4	inactive
LRRC9	0	-1.3	-0.9	-1.7	inactive
LGALS4	0	-5.6	-1	-10.2	inactive
DRAIC	1	13.9	-2.7	30.5	inactive
LOC441696	0	11.3	9.4	13.3	inactive
SARM1	0	-12	-11.9	-12.1	inactive
